# Earlier results, collected in patent US11510903B2, “Synergic pharmaceutical composition of the active enantiomer (S)-ketorolac and Gabapentin for the treatment of neuropathic pain” (priority 2018, dated 2022).
# At least one compound was matched to its structure with a doubt left.
# Conditions: cited from earlier work
smiles,measurement,value
O=C(c1ccccc1)c1ccc2n1CC[C@@H]2C(=O)O [S-Ketorolac],painkilling activity relative to the racemic form,twice
same,"painkilling potency, fold more potent (comparator not given)",about 60 times
